Test results: the supplement of paper PMC10849652
The other results are listed elsewhere or left out.

Amino acid sequences for entries named in this document (tags omitted). A change or cut given only in a name is not applied to a line headed by its entry.
UniProt Q8IW50: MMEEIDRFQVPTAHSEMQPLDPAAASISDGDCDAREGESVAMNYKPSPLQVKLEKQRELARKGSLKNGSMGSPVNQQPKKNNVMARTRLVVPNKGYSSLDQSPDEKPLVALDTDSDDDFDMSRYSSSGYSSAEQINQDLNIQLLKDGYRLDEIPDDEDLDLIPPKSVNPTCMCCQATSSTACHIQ
UniProt B1AJZ9: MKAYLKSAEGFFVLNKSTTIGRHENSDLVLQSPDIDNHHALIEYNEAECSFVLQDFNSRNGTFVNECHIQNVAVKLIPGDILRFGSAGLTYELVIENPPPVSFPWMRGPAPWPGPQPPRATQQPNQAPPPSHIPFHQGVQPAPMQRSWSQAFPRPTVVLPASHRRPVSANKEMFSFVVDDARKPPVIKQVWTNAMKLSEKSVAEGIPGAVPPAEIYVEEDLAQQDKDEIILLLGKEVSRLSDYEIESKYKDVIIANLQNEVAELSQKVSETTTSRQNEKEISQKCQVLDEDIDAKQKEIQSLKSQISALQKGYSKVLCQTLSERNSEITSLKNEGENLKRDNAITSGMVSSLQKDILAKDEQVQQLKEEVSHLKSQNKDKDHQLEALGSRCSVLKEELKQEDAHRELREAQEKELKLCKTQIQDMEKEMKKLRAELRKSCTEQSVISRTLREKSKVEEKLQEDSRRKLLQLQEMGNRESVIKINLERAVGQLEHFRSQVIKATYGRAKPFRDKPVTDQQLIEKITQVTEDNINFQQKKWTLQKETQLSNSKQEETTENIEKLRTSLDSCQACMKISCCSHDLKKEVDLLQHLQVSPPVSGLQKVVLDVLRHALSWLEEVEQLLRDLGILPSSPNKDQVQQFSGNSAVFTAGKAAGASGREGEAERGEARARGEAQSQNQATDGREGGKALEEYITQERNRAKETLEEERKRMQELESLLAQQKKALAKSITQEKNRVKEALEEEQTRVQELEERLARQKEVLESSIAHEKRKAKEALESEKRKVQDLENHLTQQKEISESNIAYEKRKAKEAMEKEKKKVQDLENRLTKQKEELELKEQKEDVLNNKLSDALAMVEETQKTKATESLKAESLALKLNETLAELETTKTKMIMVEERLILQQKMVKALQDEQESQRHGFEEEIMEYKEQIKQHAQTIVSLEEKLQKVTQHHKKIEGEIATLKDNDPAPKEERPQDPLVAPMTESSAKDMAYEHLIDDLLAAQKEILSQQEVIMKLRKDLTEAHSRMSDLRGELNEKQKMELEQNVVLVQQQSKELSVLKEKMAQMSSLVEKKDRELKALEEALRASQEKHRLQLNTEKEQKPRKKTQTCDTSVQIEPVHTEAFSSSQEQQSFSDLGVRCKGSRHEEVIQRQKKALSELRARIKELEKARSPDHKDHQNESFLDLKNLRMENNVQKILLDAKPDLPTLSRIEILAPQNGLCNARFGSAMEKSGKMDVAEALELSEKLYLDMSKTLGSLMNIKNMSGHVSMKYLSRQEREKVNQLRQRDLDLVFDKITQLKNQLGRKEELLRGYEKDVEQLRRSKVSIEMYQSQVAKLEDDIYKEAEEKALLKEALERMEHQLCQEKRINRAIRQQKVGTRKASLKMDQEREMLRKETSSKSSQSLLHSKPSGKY
UniProt O43427: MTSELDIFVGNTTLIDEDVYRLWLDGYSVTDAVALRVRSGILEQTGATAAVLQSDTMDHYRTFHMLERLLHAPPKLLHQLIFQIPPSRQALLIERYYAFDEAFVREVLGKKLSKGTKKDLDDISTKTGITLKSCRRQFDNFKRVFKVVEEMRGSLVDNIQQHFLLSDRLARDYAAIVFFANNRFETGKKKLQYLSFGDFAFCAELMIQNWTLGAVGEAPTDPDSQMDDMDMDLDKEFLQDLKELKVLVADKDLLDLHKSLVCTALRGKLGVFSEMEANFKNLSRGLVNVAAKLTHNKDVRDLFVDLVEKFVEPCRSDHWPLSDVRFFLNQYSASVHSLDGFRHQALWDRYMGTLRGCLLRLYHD
UniProt Q9UHY8: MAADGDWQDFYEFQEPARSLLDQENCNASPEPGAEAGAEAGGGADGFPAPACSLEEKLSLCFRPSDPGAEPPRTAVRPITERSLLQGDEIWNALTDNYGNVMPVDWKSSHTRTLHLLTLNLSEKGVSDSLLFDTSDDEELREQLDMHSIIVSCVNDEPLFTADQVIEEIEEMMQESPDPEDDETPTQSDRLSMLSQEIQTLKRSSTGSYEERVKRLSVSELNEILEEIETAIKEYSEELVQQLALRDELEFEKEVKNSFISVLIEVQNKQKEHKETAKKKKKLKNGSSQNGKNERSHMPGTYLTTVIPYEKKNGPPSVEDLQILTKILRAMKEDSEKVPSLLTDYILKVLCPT
UniProt P02675: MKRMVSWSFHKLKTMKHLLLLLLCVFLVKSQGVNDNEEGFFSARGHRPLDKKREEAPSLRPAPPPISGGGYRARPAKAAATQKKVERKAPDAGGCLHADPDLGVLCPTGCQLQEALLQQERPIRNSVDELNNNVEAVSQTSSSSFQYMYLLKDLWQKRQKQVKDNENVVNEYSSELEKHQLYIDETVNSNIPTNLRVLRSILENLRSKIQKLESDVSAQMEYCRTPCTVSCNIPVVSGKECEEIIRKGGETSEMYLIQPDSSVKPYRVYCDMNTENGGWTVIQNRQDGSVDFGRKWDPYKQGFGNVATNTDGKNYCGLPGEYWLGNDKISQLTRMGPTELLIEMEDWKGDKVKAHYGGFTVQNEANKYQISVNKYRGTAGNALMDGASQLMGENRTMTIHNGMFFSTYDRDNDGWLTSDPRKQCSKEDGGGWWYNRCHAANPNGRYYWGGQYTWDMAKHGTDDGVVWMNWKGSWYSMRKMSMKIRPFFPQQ
UniProt Q7L8L6: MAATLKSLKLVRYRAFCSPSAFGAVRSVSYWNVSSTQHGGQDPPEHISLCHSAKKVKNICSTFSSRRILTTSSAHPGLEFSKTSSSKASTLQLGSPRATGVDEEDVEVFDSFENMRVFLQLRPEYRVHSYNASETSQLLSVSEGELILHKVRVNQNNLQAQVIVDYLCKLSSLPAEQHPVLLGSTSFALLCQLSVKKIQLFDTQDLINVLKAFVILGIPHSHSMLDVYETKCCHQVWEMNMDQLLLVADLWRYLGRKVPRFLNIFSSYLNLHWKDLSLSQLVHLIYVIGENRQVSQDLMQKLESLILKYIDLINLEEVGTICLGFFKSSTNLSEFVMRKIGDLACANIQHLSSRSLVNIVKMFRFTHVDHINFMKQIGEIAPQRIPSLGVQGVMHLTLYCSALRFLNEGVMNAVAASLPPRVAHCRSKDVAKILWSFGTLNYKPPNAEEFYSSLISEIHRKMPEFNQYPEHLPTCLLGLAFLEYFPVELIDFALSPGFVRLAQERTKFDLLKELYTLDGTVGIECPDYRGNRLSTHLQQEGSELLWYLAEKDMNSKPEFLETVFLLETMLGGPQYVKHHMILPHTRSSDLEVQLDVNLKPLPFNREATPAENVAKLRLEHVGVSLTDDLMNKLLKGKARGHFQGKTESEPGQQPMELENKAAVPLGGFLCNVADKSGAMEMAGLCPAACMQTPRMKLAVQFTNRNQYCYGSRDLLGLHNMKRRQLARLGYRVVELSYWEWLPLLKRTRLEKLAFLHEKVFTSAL
UniProt Q6PIJ6: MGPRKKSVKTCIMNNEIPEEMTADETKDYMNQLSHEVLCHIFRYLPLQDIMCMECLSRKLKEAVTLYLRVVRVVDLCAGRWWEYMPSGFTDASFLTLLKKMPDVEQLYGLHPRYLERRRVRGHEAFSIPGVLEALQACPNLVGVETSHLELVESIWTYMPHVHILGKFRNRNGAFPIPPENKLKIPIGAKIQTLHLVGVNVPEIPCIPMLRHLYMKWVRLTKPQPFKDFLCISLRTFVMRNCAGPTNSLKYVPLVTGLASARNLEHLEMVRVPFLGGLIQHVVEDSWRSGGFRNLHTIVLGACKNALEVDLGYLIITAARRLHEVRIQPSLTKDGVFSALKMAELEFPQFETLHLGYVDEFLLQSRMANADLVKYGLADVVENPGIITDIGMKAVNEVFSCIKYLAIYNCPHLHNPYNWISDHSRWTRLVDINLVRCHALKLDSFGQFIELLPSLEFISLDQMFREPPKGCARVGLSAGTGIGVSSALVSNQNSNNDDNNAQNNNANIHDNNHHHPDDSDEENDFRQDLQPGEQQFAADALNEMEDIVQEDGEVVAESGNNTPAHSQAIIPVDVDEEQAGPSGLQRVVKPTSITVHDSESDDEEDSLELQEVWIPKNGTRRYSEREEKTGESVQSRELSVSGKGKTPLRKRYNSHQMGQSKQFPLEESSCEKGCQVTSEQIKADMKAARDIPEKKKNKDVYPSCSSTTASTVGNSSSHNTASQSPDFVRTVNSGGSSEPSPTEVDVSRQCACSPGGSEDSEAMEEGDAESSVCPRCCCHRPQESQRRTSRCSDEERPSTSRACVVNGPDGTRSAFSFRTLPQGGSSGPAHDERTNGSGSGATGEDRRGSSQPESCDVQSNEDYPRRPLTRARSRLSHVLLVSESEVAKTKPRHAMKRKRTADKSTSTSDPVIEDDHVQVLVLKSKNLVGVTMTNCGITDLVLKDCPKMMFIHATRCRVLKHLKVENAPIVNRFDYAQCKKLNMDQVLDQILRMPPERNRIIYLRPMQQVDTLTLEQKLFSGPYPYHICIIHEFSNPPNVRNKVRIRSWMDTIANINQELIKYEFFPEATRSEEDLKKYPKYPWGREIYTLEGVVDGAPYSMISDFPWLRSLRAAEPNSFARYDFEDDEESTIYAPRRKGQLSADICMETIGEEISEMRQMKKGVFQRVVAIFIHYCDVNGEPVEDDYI
UniProt A2RU67: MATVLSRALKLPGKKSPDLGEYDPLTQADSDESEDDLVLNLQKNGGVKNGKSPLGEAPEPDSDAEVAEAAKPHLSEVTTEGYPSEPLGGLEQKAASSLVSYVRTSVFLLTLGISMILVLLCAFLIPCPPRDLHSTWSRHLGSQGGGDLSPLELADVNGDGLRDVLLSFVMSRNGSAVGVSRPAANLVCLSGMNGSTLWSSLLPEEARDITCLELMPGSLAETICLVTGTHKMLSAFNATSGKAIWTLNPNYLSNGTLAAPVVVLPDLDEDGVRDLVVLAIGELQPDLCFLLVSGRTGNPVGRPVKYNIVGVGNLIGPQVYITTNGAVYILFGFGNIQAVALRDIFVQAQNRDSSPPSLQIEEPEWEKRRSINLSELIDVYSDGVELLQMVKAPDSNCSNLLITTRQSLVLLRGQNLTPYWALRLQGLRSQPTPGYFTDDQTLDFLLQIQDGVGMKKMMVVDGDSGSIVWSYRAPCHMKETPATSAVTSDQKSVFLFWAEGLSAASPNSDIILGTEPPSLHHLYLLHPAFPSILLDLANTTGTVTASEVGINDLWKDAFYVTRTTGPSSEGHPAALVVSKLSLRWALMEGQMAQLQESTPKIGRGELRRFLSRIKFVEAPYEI
UniProt Q9UK97: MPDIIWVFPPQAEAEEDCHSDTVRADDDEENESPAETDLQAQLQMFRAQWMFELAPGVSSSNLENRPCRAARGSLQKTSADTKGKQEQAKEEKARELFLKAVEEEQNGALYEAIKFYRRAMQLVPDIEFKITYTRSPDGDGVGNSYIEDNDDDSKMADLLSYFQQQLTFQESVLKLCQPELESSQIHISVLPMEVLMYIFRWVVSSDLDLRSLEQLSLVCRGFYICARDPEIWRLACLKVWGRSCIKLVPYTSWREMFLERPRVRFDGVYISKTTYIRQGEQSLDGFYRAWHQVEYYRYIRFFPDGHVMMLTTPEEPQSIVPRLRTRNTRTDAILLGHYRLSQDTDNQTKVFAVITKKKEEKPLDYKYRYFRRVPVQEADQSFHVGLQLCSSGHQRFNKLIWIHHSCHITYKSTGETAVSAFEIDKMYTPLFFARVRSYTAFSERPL
UniProt Q5XUX1: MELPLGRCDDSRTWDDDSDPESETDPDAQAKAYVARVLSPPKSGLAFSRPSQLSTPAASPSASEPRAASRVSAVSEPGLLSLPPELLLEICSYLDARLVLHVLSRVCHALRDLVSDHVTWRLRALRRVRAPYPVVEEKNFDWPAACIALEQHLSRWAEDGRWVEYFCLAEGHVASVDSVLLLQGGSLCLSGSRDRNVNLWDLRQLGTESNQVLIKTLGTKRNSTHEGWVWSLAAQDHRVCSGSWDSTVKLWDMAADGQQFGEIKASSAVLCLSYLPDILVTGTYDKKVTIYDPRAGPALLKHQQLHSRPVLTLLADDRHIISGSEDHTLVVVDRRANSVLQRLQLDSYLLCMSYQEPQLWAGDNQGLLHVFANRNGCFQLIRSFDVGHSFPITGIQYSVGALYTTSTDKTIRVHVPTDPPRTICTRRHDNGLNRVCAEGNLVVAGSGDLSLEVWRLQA

Legend:
Test in all cases: log2 fold change, soluble protein after heating vs DMSO (PISA); higher = thermal stabilisation; K562 cells, 10 uM, 30 min; active = over 0.2 and 3.5 SD of the protein, either way, in both replicates (recomputed)
bafetinib = compound: Cc1ccc(NC(=O)c2ccc(CN3CC[C@H](N(C)C)C3)c(C(F)(F)F)c2)cc1Nc1nccc(-c2cncnc2)n1 [bafetinib]
In short: (§1)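 Quantification of soluble protein used TMTpro 16plex LC-MS/MS, with channel sums equalised. Samples were the supernatant after 21,000xg for 90 min of pooled aliquots from K562 cells (2×10^6 cells/mL) treated with 10 μM compound for 30 min, heated for 3 min over 48°C-58°C, and extracted in PBS with 0.5% NP-40 at 4°C. Values, from duplicates, describe thermal stability against control samples on a log2 fold-change scale.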

nilotinib = compound: Cc1cn(-c2cc(NC(=O)c3ccc(C)c(Nc4nccc(-c5cccnc5)n4)c3)cc(C(F)(F)F)c2)cn1 [nilotinib]
In short: as §1

[1] = compound: Cc1nc(Nc2n[nH]c3c2CN(C(=O)N[C@H](CN(C)C)c2ccccc2)C3(C)C)c2sccc2n1
In short: as §1

dasatinib = compound: Cc1nc(Nc2ncc(C(=O)Nc3c(C)cccc3Cl)s2)cc(N2CCN(CCO)CC2)n1 [dasatinib]
In short: as §1

[2] = compound: Cc1ncc(-c2ccnc(Nc3ccc(S(C)(=O)=O)cc3)n2)n1C(C)C
In short: as §1

[3] = compound: Cn1cc(-c2ccc3c(c2)CCN3C(=O)Cc2cccc(C(F)(F)F)c2)c2c(N)ncnc21
In short: as §1

tipifarnib = compound: Cn1cncc1[C@@](N)(c1ccc(Cl)cc1)c1ccc2c(c1)c(-c1cccc(Cl)c1)cc(=O)n2C [tipifarnib]
In short: as §1

mubritinib = compound: FC(F)(F)c1ccc(/C=C/c2nc(COc3ccc(CCCCn4ccnn4)cc3)co2)cc1 [mubritinib]
In short: as §1

[4] = compound: NC(=O)Nc1cc(-c2cccc(F)c2)sc1C(=O)N[C@H]1CCCNC1
In short: as §1

[5] = compound: NC(=O)c1cnc(N[C@@H]2CCCC[C@@H]2N)nc1Nc1cccc(-n2nccn2)c1
In short: as §1

[6] = compound: NC1(c2ccc(-c3nc4ccn5c(=O)[nH]nc5c4cc3-c3ccccc3)cc2)CCC1
In short: as §1

entinostat = compound: Nc1ccccc1NC(=O)c1ccc(CNC(=O)OCc2cccnc2)cc1 [entinostat]
In short: as §1

citarinostat = compound: O=C(CCCCCCNC(=O)c1cnc(N(c2ccccc2)c2ccccc2Cl)nc1)NO [citarinostat]
In short: as §1

silmitasertib = compound: O=C(O)c1ccc2c(c1)nc(Nc1cccc(Cl)c1)c1ccncc12 [silmitasertib]
In short: as §1

[7] = compound: O=C1NC(=O)C(c2cnc3ccccn23)=C1c1cn2c3c(cc(F)cc13)CN(C(=O)N1CCCCC1)CC2
In short: as §1

[8] = compound: c1cc(OCCN2CCCCC2)cc(-c2n[nH]c3ccc(-c4nnc[nH]4)cc23)c1
In short: as §1

[9] = compound: Cc1cccc(CC(=O)N2CCc3c2ccc(-c2cn(C)c4ncnc(N)c24)c3F)n1
In short: as §1

[10] = compound: Cn1cc(-c2ccc3nnc(C(F)(F)c4ccc5ncccc5c4)n3n2)cn1
In short: as §1

[11] = compound: NCC(=O)Nc1ccc(-n2nc(C(F)(F)F)cc2-c2ccc3c(ccc4ccccc43)c2)cc1
In short: as §1

vorinostat = compound: O=C(CCCCCCC(=O)Nc1ccccc1)NO [vorinostat]
In short: as §1

Measured: log2 fold change

FAM219A (UniProt Q8IW50)
inactive: bafetinib -0.032 | nilotinib -0.304 | [1] 0.044 | dasatinib 0.201 | [2] -0.037 | [3] 0.043 | tipifarnib 0.066 | mubritinib -0.028 | [4] -0.002 | [5] 0.028 | [6] 0.051 | entinostat -0.04 | citarinostat -0.024 | silmitasertib -0.047 | [7] -0.041 | [8] -0.124

FHAD1 isoform 3 (UniProt B1AJZ9)
inactive: bafetinib -0.678 | [9] 0.074 | dasatinib -0.037 | [3] 0.218 | [10] -0.075 | tipifarnib 0.133 | [5] -0.049 | [11] 0.017 | vorinostat 0.264

FIBP (UniProt O43427)
inactive: bafetinib -0.096 | [9] -0.093 | dasatinib -0.201 | [3] 0.118 | [10] -0.06 | tipifarnib -0.029 | mubritinib 0.134 | [4] -0.018 | [5] 0.023 | [6] 0.011 | [11] -0.117 | entinostat -0.005 | vorinostat -0.067 | citarinostat 0.297 | silmitasertib -0.05 | [7] -0.031 | [8] -0.106

FEZ2 isoform 2 (UniProt Q9UHY8)
inactive: bafetinib -0.018 | [9] -0.187 | nilotinib -0.043 | [1] -0.172 | dasatinib -0.366 | [2] 0.113 | [3] -0.074 | [10] 0.001 | tipifarnib -0.109 | mubritinib -0.011 | [4] -0.007 | [5] -0.086 | [6] 0.021 | [11] -0.182 | entinostat 0.092 | vorinostat 0.047 | silmitasertib 0.021

FGB (UniProt P02675)
inactive: bafetinib -0.053 | [9] -0.051 | nilotinib -0.023 | [1] 0.235 | [2] 0.112 | [3] 0.227 | [10] 0.107 | mubritinib -0.079 | [4] 0.049 | [5] 0.042 | [6] 0.077 | [11] 0.02 | entinostat -0.051 | vorinostat 0.083 | citarinostat -0.205 | silmitasertib -0.064 | [8] -0.14

FAT1 (UniProt Q14517)
inactive: bafetinib -0.061 | [9] 0.044 | nilotinib 0.013 | [1] 0 | dasatinib 0.046 | [2] -0.064 | [3] 0.009 | [10] -0.052 | tipifarnib 0.077 | mubritinib 0.057 | [4] -0.018 | [6] 0 | [11] -0.075 | entinostat 0.015 | vorinostat -0.04 | silmitasertib 0.176 | [7] -0.051

FASTKD5 (UniProt Q7L8L6)
inactive: bafetinib -0.062 | [9] -0.029 | dasatinib -0.411 | [3] -0.135 | [10] 0.157 | tipifarnib 0.106 | [4] -0.146 | [5] -0.238 | [11] -0.236 | entinostat 0.269 | vorinostat 0.257 | [7] 0.048

FBXO38 (UniProt Q6PIJ6)
inactive: bafetinib -0.146 | dasatinib -0.072 | [3] 0.005 | [10] 0.028 | tipifarnib 0.129 | [4] 0.146 | [5] -0.066 | [11] -0.06 | entinostat -0.258 | citarinostat -0.002 | [7] 0.186 | [8] -0.088

FAM234B (UniProt A2RU67)
inactive: bafetinib -0.022 | [3] 0.291 | [10] -0.1 | tipifarnib 0.058 | [4] 0 | [5] 0.308 | [11] 0.107 | entinostat -0.046

FBXO9 (UniProt Q9UK97)
inactive: bafetinib 0.067 | [9] 0.234 | nilotinib 0.087 | [1] -0.354 | dasatinib -0.056 | [2] -0.113 | [3] -0.236 | [10] -0.093 | tipifarnib -0.088 | mubritinib -0.265 | [6] -0.079 | [11] -0.112 | vorinostat 0.109 | citarinostat 0.157 | silmitasertib 0.132 | [8] 0.054

FBXW9 (UniProt Q5XUX1)
inactive: bafetinib 0.03 | nilotinib -0.002 | [1] -0.035 | dasatinib -0.018 | [2] 0.087 | [3] 0.021 | [10] -0.118 | tipifarnib 0.003 | mubritinib 0.054 | [4] 0.082 | [5] -0.12 | [6] -0.07 | [11] 0.005 | entinostat 0.005 | citarinostat 0.05 | silmitasertib 0.005 | [7] -0.02 | [8] 0.045
